In article PMC4237471 one finds binding data, which are given here for 1 substance.

Amino acid sequences for entries named in this document (tags omitted).
UniProt Q91YD9: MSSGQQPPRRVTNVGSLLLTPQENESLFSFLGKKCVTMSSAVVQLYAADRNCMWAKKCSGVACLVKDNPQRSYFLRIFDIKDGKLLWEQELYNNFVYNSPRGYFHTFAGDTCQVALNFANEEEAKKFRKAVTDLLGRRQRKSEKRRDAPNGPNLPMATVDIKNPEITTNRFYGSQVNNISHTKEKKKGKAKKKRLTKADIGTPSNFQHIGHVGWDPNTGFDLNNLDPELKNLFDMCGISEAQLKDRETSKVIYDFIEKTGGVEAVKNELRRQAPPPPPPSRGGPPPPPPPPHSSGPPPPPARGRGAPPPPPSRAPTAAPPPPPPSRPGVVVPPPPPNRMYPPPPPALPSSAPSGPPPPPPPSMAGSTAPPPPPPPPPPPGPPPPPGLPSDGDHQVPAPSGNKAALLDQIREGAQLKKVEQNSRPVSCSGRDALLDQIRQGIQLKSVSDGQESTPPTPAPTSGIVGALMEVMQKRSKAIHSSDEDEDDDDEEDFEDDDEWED

In this assay the target is T1, GFP-tagged SH3 domain of human amph2 (human) (UniProt O00499).
T1 sequence: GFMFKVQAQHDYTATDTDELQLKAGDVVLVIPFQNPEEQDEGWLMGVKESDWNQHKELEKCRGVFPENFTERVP
As to the kind of experiment: co-IP; GFP-Trap (Chromotek) precipitation of GFP-tagged amph2 constructs expressed in C2C12 cells; Western blot for endogenous N-WASP and GFP. In general terms: Immunoblotting shows a protein as a band on a membrane.

Results are given in words; binding and its absence hold for the method and conditions named. Binding seen in cells or lysates may run through a third protein. Some binding calls cover weakened binding; strength is not graded here. Where a sequence is shown, tags or fusion partners need not be part of it.

Turning to “N-WASP, endogenous (mouse cells) (from UniProt Q91YD9 1-501)”, the binding entry is on record as “binds”.
